Source: publication PMC3045356

Amino acid sequences for entries named in this document (tags omitted). A change or cut given only in a name is not applied to a line headed by its entry.
UniProt P50591: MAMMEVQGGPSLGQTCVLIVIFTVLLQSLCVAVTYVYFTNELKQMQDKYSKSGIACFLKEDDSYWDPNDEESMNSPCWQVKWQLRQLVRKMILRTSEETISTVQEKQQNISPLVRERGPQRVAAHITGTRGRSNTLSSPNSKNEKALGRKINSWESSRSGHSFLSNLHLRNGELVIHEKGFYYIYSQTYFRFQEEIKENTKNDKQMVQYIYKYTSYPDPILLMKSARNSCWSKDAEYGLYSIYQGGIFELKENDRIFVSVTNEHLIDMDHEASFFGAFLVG
UniProt Q14790: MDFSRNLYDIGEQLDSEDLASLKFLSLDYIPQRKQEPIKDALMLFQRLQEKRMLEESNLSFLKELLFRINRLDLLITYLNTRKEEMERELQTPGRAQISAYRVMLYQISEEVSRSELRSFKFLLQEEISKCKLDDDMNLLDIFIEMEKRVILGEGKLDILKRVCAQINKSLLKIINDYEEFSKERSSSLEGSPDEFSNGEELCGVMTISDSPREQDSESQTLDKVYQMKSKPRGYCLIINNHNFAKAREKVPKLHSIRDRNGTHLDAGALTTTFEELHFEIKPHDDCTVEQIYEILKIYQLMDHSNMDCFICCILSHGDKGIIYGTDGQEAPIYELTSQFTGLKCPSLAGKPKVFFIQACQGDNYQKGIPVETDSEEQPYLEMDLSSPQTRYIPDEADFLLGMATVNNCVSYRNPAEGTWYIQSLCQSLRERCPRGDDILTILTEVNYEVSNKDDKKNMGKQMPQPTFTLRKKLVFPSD
UniProt Q13158: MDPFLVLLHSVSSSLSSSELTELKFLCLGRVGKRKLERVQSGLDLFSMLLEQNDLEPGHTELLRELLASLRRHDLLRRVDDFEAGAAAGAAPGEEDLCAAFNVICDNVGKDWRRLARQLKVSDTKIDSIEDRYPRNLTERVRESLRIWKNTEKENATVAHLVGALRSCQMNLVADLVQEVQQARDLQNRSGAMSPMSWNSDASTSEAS

Biological target: Recombinant human soluble flag-tagged TRAIL (human) (UniProt P50591)
Experiment: co-IP; TRAIL-DISC: SW948 or SW948-TR cells stimulated 30 min at 37°C with 500 ng/ml Flag-tagged TRAIL premixed with 1.5 μg/ml anti-Flag M2; lysis in 1% Nonidet P-40, 150 mM NaCl, 30 mM Tris-HCl pH 7.5; precipitated with protein-A sepharose; Western blot for DR4, DR5, FADD, caspase 8, c-FLIP; only the target purified

Row | Substance | binding
1 | Caspase 8 (from UniProt Q14790 1-479) (enzyme) | binds
2 | FADD (from UniProt Q13158 1-208) | binds

These are yes or no findings as the source states them, for the method shown. In cells and extracts the contact can be indirect. Binding calls can cover weak binding; strength is not graded here.
